Several values for one entry are separate records, joined by “and”; a condition that tells them apart may be missing. Equal entries are not always repeated. This is one part of the list. These are further read-outs of the screen, such as a control signal, another cell line or another target. No call is given for them. The list favours compounds with an active or inconclusive main result. Words in brackets tell the shape of the fitted curve; partial curves, single points and poor fits give uncertain potencies.
Assay: Cell signaling CRE-BLA (Fsk stim)
Details: CHO CRE-bla reporter (cAMP response element driving beta-lactamase), forskolin EC10, beta-lactamase ratio; measured here: 460 nm blue channel
Method in brief: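 qHTS titration format; CRE-bla CHO reporter; stimulus EC10 NKH 477, a water-soluble forskolin. Read: CCF4 460/530 nm ratio. Potency expressed as AC50 for activators or inhibitors.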

SMILES | AC50
O=S1(=O)CCN=C2SC3=C(CCCC3)N21 | 3.98 µM [rising, single point]
COc1cc(C(=O)Nc2cccc3ncccc23)cc(OC)c1OC | 10 µM [rising, single point]
CCCc1nc2oc3c(NCC4CCCO4)ncnc3c2c2c1COC(C)(C)C2 (stereo not drawn) | 1.58 µM [rising, full curve]
CCOC(=O)C1=C(C)N=C(/N=C/N(C)C)SC1c1ccccc1 (stereo not drawn) | 31.6 µM [falling, partial curve]
O=C(c1ccccc1)c1ccc(N2CCOCC2)c(NC(=O)c2ccco2)c1 | 6.31 µM [rising, partial curve]
CC(=O)NC(CC(C)C)C(=O)NC(=O)NCc1ccccc1 (stereo not drawn) | 0.00794 µM [falling, full curve, poor fit]
CCc1nc(N(CC)CC)c2oc3ccccc3c2n1 | 7.94 µM [rising, partial curve]
COc1ccc(CCNc2oc(COc3ccccc3Cl)nc2C#N)cc1OC | 25.1 µM [falling, single point]
O=c1c(-c2cccs2)nc2cnc(N3CCNCC3)nc2n1CCc1ccccc1 | 2 µM [rising, full curve]
CCCCSc1nc2c(cnn2-c2ccc(F)cc2)c(=O)[nH]1 | 3.16 µM [rising, full curve]
O=C(NC1CCCCC1)C(c1ccccc1)N1CCOCC1 (stereo not drawn) | 0.631 µM [falling, single point]
CCCCn1c(NC(C)CC)nc2c1c(=O)[nH]c(=O)n2C (stereo not drawn) | 15.8 µM [rising, single point]
CCOC(=O)C(C)n1cnc2c(nnn2-c2ccc(OC)cc2)c1=O (stereo not drawn) | 5.01 µM [rising, single point]
CC(=O)c1c(NC(=O)C(C)C)nc(C)nc1-c1ccccc1 | 0.398 µM [rising, full curve]
Cc1ccc(-c2nn(C)c(=O)c3ccccc23)cc1S(=O)(=O)NCCO | 15.8 µM [rising, partial curve]
C=C[C@@]1(C)CC(=O)[C@@]2(O)[C@@]3(C)[C@@H](O)CCC(C)(C)[C@@H]3[C@H](OC(=O)CCN(C)C)[C@H](OC(C)=O)[C@@]2(C)O1 | 0.0631 µM [rising, full curve]
COc1ncnc2c1oc1nc(CC(C)C)c3c(c12)CCCC3 | 2.51 µM [rising, partial curve]
COc1ccc(CCNc2oc(-c3ccco3)nc2C#N)cc1 | 10 µM [rising, partial curve]
COc1ncc2nc(-c3cc(F)cc(F)c3)c(=O)n(Cc3cccs3)c2n1 | 6.31 µM [rising, partial curve]
CCCCOc1ccccc1C1CC(=O)NC2=C1C(=O)CCC2 (stereo not drawn) | 3.98 µM [rising, full curve]
CN(C)c1ccc(-c2nccc(NCCN3CCOCC3)n2)cc1 | 5.01 µM [rising, partial curve]
CCOC(=O)c1sc(NC(=O)CSc2nnc(-c3ccc(OC)cc3)n2CCOC)nc1C | 10 µM [rising, single point]
Cc1ccccc1Cc1c(C)nc2ncnn2c1C | 10 µM [rising, single point]

Molecules shown so far that contain a thiophene ring, fused or not (2):
SMILES | AC50
O=c1c(-c2cccs2)nc2cnc(N3CCNCC3)nc2n1CCc1ccccc1 | 2 µM [rising, full curve]
COc1ncc2nc(-c3cc(F)cc(F)c3)c(=O)n(Cc3cccs3)c2n1 | 6.31 µM [rising, partial curve]

More entries

SMILES | AC50
COc1ccc(-c2noc(CCC(=O)NCc3cccnc3)n2)cc1OC | 1 µM [rising, full curve]
CCCc1cc2c(=O)c(-c3ccccn3)coc2cc1OC | 12.6 µM [rising, partial curve]
COc1ccc(OC)c(C2=NOC(C(=O)Nc3cccnc3)C2)c1 (stereo not drawn) | 0.631 µM [falling, partial curve]
Nc1ncnc2c1nc(Br)n2[C@H]1O[C@H]2COP(=O)(O)O[C@H]2[C@@H]1O | 0.316 µM [rising, full curve, poor fit]
O=C(CSc1nnnn1-c1ccccc1)Nc1nsc(-c2ccccc2)n1 | 3.98 µM [rising, single point]
CN1CCc2c(sc3c2C(=O)NC(c2ccccn2)N3)C1 (stereo not drawn) | 12.6 µM [rising, partial curve]
Cc1ccc(NC2c3ncccc3C(=O)N2C2CCCCC2)cc1C (stereo not drawn) | 0.398 µM [rising, single point]
COc1ccc(-n2c(=O)c(-c3cc(F)cc(F)c3)nc3cnc(N4CCNCC4)nc32)cc1 | 10 µM [rising, partial curve]
CCOC(=O)c1cnc2c(cnn2CC)c1NN=C(C)C | 15.8 µM [rising, partial curve] and 398 nM [rising, full curve]
CCn1c(SCC(=O)OCC(=O)N2c3ccccc3NC(=O)C2(C)C)nnc1-c1ccco1 | 3.98 µM [falling, partial curve]
COc1cc(-c2c(C#N)c(N)nc3c2c(C)nn3-c2ccc(C)c(C)c2)cc(OC)c1OC | 1.58 µM [rising, full curve]
COCCn1c(=O)c(-c2ccccc2)nc2cnc(N(C)C)nc21 | 10 µM [rising, partial curve]
O=C1NCCCC2c3c(cc(Br)c(O)c3Br)OC12N1CCOCC1 (stereo not drawn) | 1.58 µM [rising, full curve, poor fit]
O=C(Nc1cccnc1)c1cnn2c(C(F)F)cc(C3CC3)nc12 | 6.31 µM [rising, partial curve]
CN1CCN(c2ncc3nc(-c4cccc(C#N)c4)c(=O)n(C[C@H]4CCCO4)c3n2)CC1 | 20 µM [rising, partial curve]
Cc1onc(-c2ccccc2)c1C(=O)n1cccn1 | 1.26 µM [falling, partial curve, poor fit]
O=C(COc1ccccc1)Nc1nn[nH]n1 | 1.58 µM [rising, partial curve]
CCOC(=O)c1c(C(C)(C)C)oc2ccc(OCC#N)cc12 | 6.31 µM [rising, partial curve]
CCOC(=O)c1sc2nc(CC(=O)OC)nc(NCc3ccco3)c2c1C | 10 µM [rising, partial curve]
Cc1nc2ccc(Br)cn2c(=O)c1Cl | 20 µM [rising, single point]
CCCCCCn1c(N2CCC(C(N)=O)CC2)nc2c1c(=O)n(C)c(=O)n2C | 10 µM [rising, single point]
CC1(C)Cc2c(C#N)c(NCCCO)nc(-c3ccccc3)c2CO1 | 10 µM [rising, partial curve]
CCOC(=O)c1sc(NC(=O)COC(=O)Cn2cnc3ccccc32)c(C(=O)OCC)c1C | 7.94 µM [rising, partial curve]

SMILES | AC50
Cc1ccc2[nH]c(=O)c(CN(CCN3CCOCC3)C(=O)Nc3ccc(F)cc3)cc2c1 | 10 µM [rising, partial curve]
Brc1ccc(C2=Nn3c(nnc3-c3cccnc3)SC2)s1 | 10 µM [falling, partial curve]
Cc1ccc(CNC(=O)C2CCN(S(=O)(=O)c3c(C)noc3C)CC2)cc1 | 0.316 µM [rising, full curve, poor fit]
CCc1cc(=O)oc2c(C)c(O)c(CN3CCCCC3)cc12 | 12.6 µM [rising, partial curve]
COc1cc(C(=O)N2CCC(C(=O)Nc3cccc(C(C)=O)c3)CC2)cc(OC)c1OC | 12.6 µM [rising, partial curve]
CCOC(=O)CSc1nc2ccccc2c(=O)n1CC1CCCO1 (stereo not drawn) | 6.31 µM [rising, partial curve]
CC(=O)NCCNc1nc(-c2ccccc2C)nc2ccccc12 | 7.94 µM [rising, partial curve]
O=C(NCC(=O)N(CCN1CCOCC1)C(C(=O)NC1CCCC1)c1cccs1)c1ccco1 (stereo not drawn) | 1 µM [falling, full curve, poor fit]
COC(=O)c1c(NC(=O)c2nc3ncccn3n2)sc(C(=O)N(C)C)c1C | 25.1 µM [falling, single point]
O=c1c2c(nc3cc(-c4ccc(F)cc4)[nH]n13)CCCC2 | 12.6 µM [rising, partial curve]
CCOC(=O)N1CCN(C(=O)Cc2ccc(-n3c(=S)[nH]c4ccccc4c3=O)cc2)CC1 | 0.0316 µM [falling, full curve, poor fit]
CCOC(=O)c1c(C)[nH]c(C(=O)OCC(=O)N2c3ccccc3CC2C)c1C (stereo not drawn) | 10 µM [rising, single point]
Cc1cccc(C)c1NC(=O)CSCC(=O)O | 0.251 µM [falling, partial curve]
CCOC(=O)c1cnc(SCc2nc(N)nc(Nc3ccc(C)cc3)n2)nc1N | 12.6 µM [rising, partial curve]
COc1ccc(OC)c(Nc2ncnc3c2cnn3-c2cccc(C)c2)c1 | 10 µM [rising, single point]
COC(=O)c1cc(NC(=O)C23CCC(C)(C(=O)O2)C3(C)C)cc(C(=O)OC)c1 (stereo not drawn) | 0.01 µM [falling, full curve]
CCC1S/C(=C(\C#N)C(=O)NCc2ccco2)N(c2ccc(F)cc2)C1=O (stereo not drawn) | 25.1 µM [rising, single point]
Cc1nc2ccc3nc(NC(=O)C4COc5ccccc5O4)sc3c2s1 (stereo not drawn) | 12.6 µM [rising, partial curve]
COCCn1c(=O)c(-c2ccccc2)nc2cnc(OC)nc21 | 12.6 µM [rising, partial curve]
Cc1[nH]nc2c1C(c1ccccc1F)CC(=O)N2 (stereo not drawn) | 0.631 µM [falling, full curve]
O=C1CC2(CCCCC2)Oc2ccc(OCC(=O)N3CCOCC3)cc21 | 7.94 µM [rising, partial curve, poor fit]
CCOc1cc(C2C(C(=O)OC)=C(C)N=C3SC(C)C(=O)N32)ccc1OC(C)=O (stereo not drawn) | 10 µM [rising, partial curve]

Source: PubChem BioAssay AID662 (National Center for Advancing Translational Sciences (NCATS), 2007)
